# From PubChem BioAssay (NCATS)
# Several values for one entry are separate records, joined by “and”; a condition that tells them apart may be missing. Equal entries are not always repeated. For part of these data: The hits were mostly taken out for another list; the other results follow. Records with an inconclusive call do not appear. Only a part is listed here, and it is no random draw. Activity calls are given as the source filed them. Unless noted, the call rests on the fitted dose curve; in most records, active means well fitted curve in the direction sought with a large enough effect; inconclusive means small, poorly fitted or top-dose-only effect, or another doubt; inactive means no such curve, though single readings can be large; an effect the other way counts as inactive or inconclusive.
# Key:
# [1] = qHTS for small molecule inhibitors of Yes1 kinase: Counter Assay (AID 686950); settings: at 154 µM (top of the series);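 further: no kinase present so only ADP-Glo detection of a fixed ADP amount is tested; luminescence from ADP-Glo reporting ADP in a fixed ATP and ADP mixture; 0% = DMSO wells with ATP plus ADP and -100% = ATP-only wells without ADP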
# Summary of the method: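 Luminescence read-out from ADP-Glo quantifies a fixed ADP amount (0.02 mM ADP with 0.08 mM ATP) after 60 min at room temperature; signal is normalized between DMSO wells with ATP/ADP and with 0.1 mM ATP alone.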
# [2] = qHTS profiling for inhibitors of Plasmodium falciparum (3D7) proliferation (AID 743322);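 further: infected erythrocytes exposed to compound for 72 h before lysis; 100% = DMSO vehicle wells and 0% = 0.29 µM artemisinin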; settings: P. falciparum 3D7 proliferation
# Summary of the method: (§1)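 Erythrocytes infected with P. falciparum (0.3% parasitemia, 2.5% hematocrit) incubated with compounds 72 h at 37 C, 5% CO2. Lysis with saponin/Triton buffer containing SYBR Green I, overnight at room temperature in the dark; DNA fluorescence (485/535 nm) normalised to 0.29 uM artemisinin and DMSO.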
# [3] = qHTS profiling for inhibitors of Plasmodium falciparum (DD2) proliferation (AID 743323; call rule not given here); settings: lower = more inhibition
# Summary of the method: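 SYBR Green fluorescence (ex 485, em 535 nm) of lysed cultures gives parasite DNA content; wells normalized to artemisinin (0.29 uM) and DMSO controls. Infected red cells: 0.3% parasitemia, 2.5% hematocrit, 72 h, 37 C.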
# [4] = qHTS profiling for inhibitors of Plasmodium falciparum (HB3) proliferation (AID 743324); settings: Plasmodium falciparum HB3 blood-stage proliferation;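 further: 100% = DMSO vehicle wells and 0% = artemisinin-treated control wells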
# Summary of the method: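 P. falciparum HB3 grown in erythrocytes (0.3% parasitemia, 2.5% hematocrit final) with compound for 72 h at 37 C, 5% CO2. Parasite DNA detected by SYBR Green after saponin/triton lysis overnight; normalized to 0.29 uM artemisinin and DMSO.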
# [5] = qHTS profiling of the MIPE4 collection as inhibitors of Plasmodium falciparum (3D7) proliferation (AID 743344; call rule not given here;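 further: scaled between DMSO vehicle wells and 0.29 µM artemisinin as full inhibition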); settings: P. falciparum 3D7 in erythrocytes, SYBR Green DNA fluorescence, 72 h; at 28.5 µM (top of the series)
# Summary of the method: as §1
# [6] = qHTS profiling of the MIPE4 collection as inhibitors of Plasmodium falciparum (DD2) proliferation (AID 743345; call rule not given here); settings: P. falciparum Dd2 in erythrocytes, SYBR Green DNA, 72 h; at 28.5 µM (top of the series)
# Summary of the method: as §1
# [7] = qHTS profiling of the MIPE4 collection as inhibitors of Plasmodium falciparum (DD2) proliferation (Rep 2) (AID 743346; call rule not given here); settings: P. falciparum Dd2 in erythrocytes, SYBR Green DNA, 72 h; at 28.5 µM (top of the series)
# Summary of the method: as §1
# [8] = qHTS profiling of the MIPE4 collection as inhibitors of Plasmodium falciparum (HB3) proliferation (AID 743347; call rule not given here;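 further: plate controls were DMSO vehicle wells for no effect and artemisinin wells for full effect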); settings: P. falciparum HB3 in erythrocytes, SYBR Green DNA, 72 h; at 28.5 µM (top of the series)
# Summary of the method: as §1
# [9] = qHTS assay for measurement of the activity of small molecule inhibitors on Zika virus induced Caspase-3 activity in human iPSC derived neural progenitor cells (hNPCs) (AID 1224857); settings: hNPCs ZIKV-induced caspase-3/7, Caspase-Glo luminescence, 6 h; at 45.7 µM (top of the series); further: % of control where 0% means no effect; nearly all actives have a fitted effect of over 65% in size
# Summary of the method: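 Values are percent inhibition of virus-induced caspase-3/7 signal, scaled between uninfected cells and ZIKV-infected cells. Infection used 2 FFU/cell for 6 h after 1 h compound exposure.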
# [10] = qHTS assay for measurement of the activity of small molecule inhibitors on Zika virus induced Caspase-3 activity in human astrocytoma cells (AID 1224859); settings: SNB-19 ZIKV-induced caspase-3/7, luminescence, 6 h; at 45.7 µM (top of the series);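 further: plate controls were ZIKV-infected untreated cells for no effect and uninfected cells for full effect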
# Summary of the method: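 Compound added 1 h pre-infection; ZIKV 2 FFU/cell on SNB-19 cells, 6 h, 37 C/5% CO2. Caspase-Glo 3/7 luminescence; values as % inhibition of ZIKV-induced caspase activity.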
# [11] = qHTS Screen of the MIPE 4.0 Collection Against Ewings Sarcoma (RDES) (AID 1259252); settings: RD-ES Ewing sarcoma viability, CellTiter-Glo, 48 h; further: potency means the concentration at half of the fitted maximal effect; nearly all actives have a fitted effect of over 35% in size
# Summary of the method: (§2)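 After a 4 h attachment period in RPMI/5% FBS, cells were pin-dosed with test compounds; DMSO served as negative and 9.2 uM bortezomib (final) as positive control. Luminescent CellTiter-Glo signal at 48 h defined viability.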
# [12] = qHTS Screen of the MIPE 4.0 Collection Against Ewings Sarcoma (TC71) (AID 1259253); settings: TC71 Ewing sarcoma viability, CellTiter-Glo, 48 h; further: potency means the concentration at half of the fitted maximal effect; nearly all actives have a fitted effect of over 40% in size
# Summary of the method: as §2
# [13] = qHTS Screen of the MIPE 4.0 Collection Against Ewings Sarcoma (EW8) (AID 1259255); settings: EW8 Ewing sarcoma viability, CellTiter-Glo, 48 h; further: potency means the concentration at half of the fitted maximal effect; nearly all actives have a fitted effect of over 35% in size
# Summary of the method: as §2
# [14] = qHTS Screen of the MIPE 4.0 Collection Against Ewings Sarcoma (TC32) (AID 1259256); settings: TC32 Ewing sarcoma viability, CellTiter-Glo, 48 h; further: potency means the concentration at half of the fitted maximal effect; nearly all actives have a fitted effect of over 45% in size
# Summary of the method: as §2
# [15] = qHTS assay to identify small molecule inhibitors of chordoma cells - UCH-1 (AID 1259355); settings: UCH-1 chordoma viability, CellTiter-Glo, 48 h, combination; further: potency means the concentration at half of the fitted maximal effect; nearly all actives have a fitted effect of over 55% in size
# Summary of the method: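 Seed 800 cells per well; incubate overnight at 37 C, 5% CO2. Add test compounds (15 concentrations), then the auranofin–topoisomerase-agent combination. Incubate 48hr, add CellTiter-Glo, wait 30min, read luminescence.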
# [16] = qHTS assay to identify small molecule inhibitors of chordoma cells - UCH-2 (AID 1259356); settings: UCH-2 chordoma viability, CellTiter-Glo ATP luminescence, 48 h; at 46.1 µM (top of the series); further: on the % scale 0 is the no-effect control and ±100 the full control effect
# [17] = Identifying Small Molecule Inhibitors of Pancreatic Cancer Stem Cells (A2780, Spheroid) (AID 1259357); settings: at 92.2 µM (top of the series);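 further: compound exposure lasted 48 h before the ATP luminescence read; 100% = DMSO treated cells and 0% = wells without cells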
# Summary of the method: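 Cytotoxicity read by CellTiter-Glo luminescence after 48 h compound exposure at 37C; percent activity scaled between DMSO-treated cells and cell-free wells. Spheroid formats used cells pre-formed 14 days in stem cell media on hydrogel.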
# [18] = Identifying Small Molecule Inhibitors of Pancreatic Cancer Stem Cells (SN12C, Adherent) (AID 1259358); settings: viability/growth inhibition;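 further: potency means the concentration at half of the fitted maximal effect; cell survival measured after 48 h of compound exposure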
# Summary of the method: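 Adherent (2D) versus sphere (3D) formats; spheres generated 14 d in SCM beforehand. Compound transferred by pin tool after 4 h, 48 h incubation, CellTiter-Glo endpoint.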
# [19] = NS1 protein of Zika virus - qHTS assay to identify small molecule inhibitors in human HEK 293 cells (AID 1347053); settings: HEK293 ZIKV MR766 infection, NS1 TR-FRET, 24 h; at 46.1 µM (top of the series);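 further: plate controls were infected untreated cells for no effect and uninfected cells for full effect; nearly all actives have a fitted effect of over 55% in size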
# Summary of the method: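 HEK 293 cells, seeded 20 h at 37 C, were pretreated with compound 1 h, then infected with ZIKV MR766 (MOI = 0.5) for 24 h. NS1 was read by TR-FRET with two anti-NS1 antibodies, normalized to uninfected and infected wells.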
# [20] = tested on: Zika virus NS2B-NS3 protease; test: Primary screen GU AMC qHTS for Zika virus inhibitors (AID 1347154);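 further: 0% = no-inhibitor control and -100% = no-enzyme control; nearly all actives have a fitted effect of over 70% in size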
# Summary of the method: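 Fluorogenic AMC-substrate cleavage by noncovalent NS2B-NS3 protease complex (25 nM, pH 8.0 Tris buffer with Tween 20) followed for 15 minutes at room temperature (~20% conversion). Percent inhibition from ex340/em450 signal change, fitted by 4-parameter Hill equation.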
# [21] = tested on: Zika virus NS2B-NS3 protease (unlinked complex); test: Primary screen GU Rhodamine qHTS for Zika virus inhibitors: Unlinked NS2B-NS3 protease assay (AID 1347159); settings: Recombinant ZIKV NS2B-NS3 protease, Rhodamine110 substrate fluorescence; at 107 µM (top of the series); further: on the % scale 0 is the no-effect control and ±100 the full control effect; nearly all actives have a fitted effect of over 60% in size
# Summary of the method: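 Noncovalent NS2B hydrophilic domain–NS3 protease domain complex (25 nM) preincubated 15 min at room temperature with compounds (up to 114 microM) in 10 mM Tris-HCl pH 8.0, 0.01% Tween 20; 1.5 microM Rhodamine110 substrate added, fluorescence change over 15 min fitted to Hill equation.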
# [22] = tested on: Zika virus NS2B-NS3 protease (linked construct); test: Primary screen NINDS Rhodamine qHTS for Zika virus inhibitors (AID 1347160); settings: purified NS2B-NS3 protease, Rhodamine110 substrate fluorescence; at 57.1 µM (top of the series); further: on the % scale 0 is the no-effect control and ±100 the full control effect; nearly all actives have a fitted effect of over 55% in size
# Summary of the method: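 Purified linked NS2B-NS3 protease (NS2B hydrophilic domain joined to NS3 protease by flexible linker), 25 nM in 10 mM Tris-HCl pH 8.0, 0.01% Tween 20. Compounds titrated, 15 min preincubation at room temperature; 1.5 microM Rhodamine110 substrate, FITC fluorescence change over 15 min.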
# [23] = qHTS profiling for inhibitors of Plasmodium falciparum proliferation (AID 504749); further: potency means the concentration at half of the fitted maximal effect; nearly all actives have a fitted effect of over 60% in size; settings: P. falciparum in erythrocytes, SYBR Green DNA, 72 h
# Summary of the method: (§3)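 Infected RBCs, 0.3% parasitemia/2.5% Hct final; cpd 72 h, 37 C, 5% CO2; lysis buffer with saponin/triton/SYBR Green I, o/n RT dark; FI 485/535; norm. to artemisinin (0.29 uM) and DMSO.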
# 3D7 = test: as above; settings: P. falciparum in erythrocytes, SYBR Green DNA, 72 h
# Summary of the method: as §3
# 7G8 = test: as above; settings: P. falciparum in erythrocytes, SYBR Green DNA, 72 h
# Summary of the method: as §3
# AA1029 = test: as above; settings: P. falciparum in erythrocytes, SYBR Green DNA, 72 h
# Summary of the method: as §3
# AS120 = test: as above; settings: P. falciparum in erythrocytes, SYBR Green DNA, 72 h
# Summary of the method: as §3
# ATS189 = test: as above; settings: P. falciparum in erythrocytes, SYBR Green DNA, 72 h
# Summary of the method: as §3
# ATS95 = test: as above; settings: P. falciparum in erythrocytes, SYBR Green DNA, 72 h
# Summary of the method: as §3
# C2A = test: as above; settings: P. falciparum in erythrocytes, SYBR Green DNA, 72 h
# Summary of the method: as §3
# CP185 = test: as above; settings: P. falciparum in erythrocytes, SYBR Green DNA, 72 h
# Summary of the method: as §3
# CP191 = test: as above; settings: P. falciparum in erythrocytes, SYBR Green DNA, 72 h
# Summary of the method: as §3
# CP192 = test: as above; settings: P. falciparum in erythrocytes, SYBR Green DNA, 72 h
# Summary of the method: as §3
# CP194 = test: as above; settings: P. falciparum in erythrocytes, SYBR Green DNA, 72 h
# Summary of the method: as §3
# CP201 = test: as above; settings: P. falciparum in erythrocytes, SYBR Green DNA, 72 h
# Summary of the method: as §3
# CP203 = test: as above; settings: P. falciparum in erythrocytes, SYBR Green DNA, 72 h
# Summary of the method: as §3
# CP211 = test: as above; settings: P. falciparum in erythrocytes, SYBR Green DNA, 72 h
# Summary of the method: as §3
# CP215 = test: as above; settings: P. falciparum in erythrocytes, SYBR Green DNA, 72 h
# Summary of the method: as §3
smiles,measurement,setting,value
O=C(CCCCCCC(=O)Nc1ccccc1)NO,"activity change, negative = inhibition",[1],inactive: -0.712%
same,remaining parasite growth % (stronger effect = lower value),[2]; at 28.7 µM (top of the series),-1.09%
same,remaining parasite growth % (stronger effect = lower value),[2]; at 57.5 µM (top of the series),0.0859%
same,"activity, percent of control",[3]; at 28.7 µM (top of the series),0.142%
same,"activity, percent of control",[3]; at 57.5 µM (top of the series),0.337%
same,"remaining proliferation (% of control), lower = more inhibition",[4]; at 28.7 µM (top of the series),0.0858%
same,"remaining proliferation (% of control), lower = more inhibition",[4]; at 57.5 µM (top of the series),0.4%
same,"parasite growth, % of DMSO control",[5],5.19%
same,"parasite growth remaining, % of DMSO control (lower = more inhibition)",[6],7.07%
same,"parasite growth, % of control (lower = inhibition)",[7],15.5%
same,"growth, % of control",[8],4.44%
same,"activity change, negative = inhibition",[9],inactive: -10.3% and inactive: 24.3%
same,"activity change, negative = inhibition",[10],inactive: -2.39% and inactive: 10.6%
same,Potency,[11],active: 2960 nM
same,Potency,[12],active: 2960 nM
same,Potency,[13],active: 2350 nM
same,Potency,[14],active: 2350 nM
same,Potency,[15],active: 10000 nM
same,"activity change, negative = inhibition",[16],inactive: -9.44%
same,viability (percent of control),[17],inactive: 107%
same,Potency,[18],active: 34000 nM
same,"activity change, negative = inhibition",[19],inactive: -1.65% and inactive: -18.3%
same,Potency,[20],inactive
same,"activity change, negative = inhibition",[21],inactive: 0.755%
same,"activity change, negative = inhibition",[22],inactive: 16.4%
same,Potency,[23]; parasite line A,active: 891 nM
same,Potency,[23]; parasite line B,active: 708 nM
same,Potency,3D7,active: 891 nM
same,Potency,7G8,active: 316 nM
same,Potency,AA1029,active: 501 nM
same,Potency,AS120,active: 398 nM
same,Potency,ATS189,active: 891 nM
same,Potency,ATS95,active: 631 nM
same,Potency,C2A,active: 501 nM
same,Potency,CP185,active: 794 nM
same,Potency,CP191,active: 447 nM
same,Potency,CP192,active: 1350 nM
same,Potency,CP194,active: 757 nM
same,Potency,CP201,active: 1350 nM
same,Potency,CP203,active: 849 nM
same,Potency,CP211,active: 1070 nM
same,Potency,CP215,active: 953 nM
